According to PubChem BioAssay:
The other results are listed elsewhere or left out. These are further read-outs of the screen, such as a control signal, another cell line or another target. No call is given for them. For some of these results: Most of these compounds were active or inconclusive in the main read-out, so they are no random draw.

Assay: PubChem AID 1586
Conditions: yeast two-hybrid polyglutamine protein interaction, reporter readout; measured here: averaged growth delta OD

SMILES | signal change (36 h minus 0 h)
CNC(C)Cc1ccccc1 (stereo not drawn) | 0.278
C[N+](C)(C)CC(=O)[O-] | 0.431
CNC(C)C(=O)c1ccccc1 (stereo not drawn) | 0.136
CC(C)CC(NC(=O)C(Cc1ccccc1)NC(=O)CNC(=O)CNC(=O)C(N)Cc1ccc(O)cc1)C(=O)O (stereo not drawn) | 0.273
CC[C@@H]1/C=C/C=C/C[C@H](C)[C@@H](O)[C@](C)(O)C(=O)[C@H](C)[C@@H](O)[C@H](C)C(=O)[C@H](C)[C@@H](O)[C@H](C)/C=C/C(=O)O[C@H]2[C@@H](C)[C@@H](CC1)O[C@@]1(CC[C@@H](C)[C@@H](C[C@H](C)O)O1)[C@@H]2C | -0.217
CN(C)[C@@H]1C(=O)C(C(N)=O)=C(O)[C@@]2(O)C(=O)C3=C(O)c4c(O)cccc4[C@@](C)(O)[C@H]3C[C@@H]12 | 0.271
C[CH2][Hg][S]c1ccccc1C(=O)O | 0.0261
COc1ccc(C[C@H]2NC[C@H](O)[C@H]2OC(C)=O)cc1 | 0.271
CN=C1CN(O)C(c2ccccc2)=c2cc(Cl)ccc2=N1 | 0.337
CC(N)Cc1ccc2c(c1)OCO2 (stereo not drawn) | 0.0979
C[C@]12CCC(=O)C=C1CCC1C2CC[C@@]2(C)C1CC[C@@H]2O (stereo partly drawn) | 0.0566
NC(=O)CN1CCCC1=O | 0.173
Clc1ccc(COC(Cn2ccnc2)c2ccc(Cl)cc2Cl)c(Cl)c1 (stereo not drawn) | 0.00605
C[C@@H]([C@H](O)c1ccccc1)N(C)C | 0.134
C=CCC1(C(C)CCC)C(=O)N=C(S)NC1=O (stereo not drawn) | 0.281
CN(C)[C@@H]1C(=O)C(C(N)=O)=C(O)[C@@]2(O)C(=O)C3=C(O)c4c(O)ccc(Cl)c4[C@@](C)(O)[C@H]3C[C@@H]12 | 0.191

As entered above:
CC(C)CC(NC(=O)C(Cc1ccccc1)NC(=O)CNC(=O)CNC(=O)C(N)Cc1ccc(O)cc1)C(=O)O (stereo not drawn) – signal change (36 h minus 0 h): 0.273
CC(N)Cc1ccc2c(c1)OCO2 (stereo not drawn) – signal change (36 h minus 0 h): 0.0979

Assay: selective SMN2 exon splicing luciferase activators – cell-based, SMN2/SMN1 luciferase reporters (AID 1598)
Conditions: SMN2 vs SMN1 luciferase splicing reporter cells, at 10 µM; SMN1 luciferase ratio: measured here: SMN1 luciferase reporter average; SMN2 luciferase ratio: measured here: SMN2 luciferase reporter average, stronger effect = higher value

SMILES | SMN2 luciferase ratio | SMN1 luciferase ratio
NCC(O)c1ccc(O)cc1 (stereo not drawn) | 0.94 | 0.95
CC(=O)OCC1=C(C(=O)O)N2C(=O)[C@@H](NC(=O)CCCC(N)C(=O)O)C2SC1 (stereo partly drawn) | 0.94 | 0.96
CCC(=O)O[C@H]1CCC2C3CCC4=CC(=O)CC[C@]4(C)C3CC[C@@]21C (stereo partly drawn) | 0.94 | 0.96
CC(N)C(O)c1ccccc1 (stereo not drawn) | 0.93 | 0.96
CCNC(C)Cc1cccc(C(F)(F)F)c1 (stereo not drawn) | 1.01 | 0.91
C#CC1(O)CCC2C3CCC4=CC(=O)CCC4(C)C3CCC21C (stereo not drawn) | 0.96 | 0.95
CN1C(=O)C(O)N=C(c2ccccc2)c2cc(Cl)ccc21 (stereo not drawn) | 0.84 | 0.8
C[N+](C)(C)CC#CCN1CCCC1=O | 0.99 | 0.91
CC(=O)C1=C(O)C2C3c4c[nH]c5cccc(c45)CC3C(C)(C)N2C1=O (stereo not drawn) | 0.98 | 1.07
CCCC(C)C1(CC)C(=O)N=C(S)NC1=O (stereo not drawn) | 0.89 | 0.82
CN[C@@H](C)[C@@H](O)c1ccccc1 | 0.97 | 0.87
O=C1Nc2ccc(Cl)cc2C(c2ccccc2Cl)=NC1O (stereo not drawn) | 0.95 | 0.98
N#CC(O[C@@H]1O[C@H](CO[C@@H]2O[C@H](CO)[C@@H](O)[C@H](O)[C@H]2O)[C@@H](O)[C@H](O)[C@H]1O)c1ccccc1 (stereo partly drawn) | 0.97 | 0.9
CC[C@@H](CO)NC(=O)[C@@H]1C=C2c3cccc4[nH]cc(c34)C[C@H]2N(C)C1 | 0.91 | 0.91
CN1C2CC(OC(=O)[C@H](CO)c3ccccc3)C[C@H]1CC2O (stereo partly drawn) | 0.94 | 0.88
CC(C)(C)NCC(O)c1ccccc1Cl (stereo not drawn) | 0.86 | 0.84
O=C(O)CCCc1ccc(N(CCCl)CCCl)cc1 | 0.86 | 0.95
[N-]=[N+]=CC(=O)OCC(N)C(=O)O (stereo not drawn) | 0.77 | 0.95

SMILES | SMN2 luciferase ratio | SMN1 luciferase ratio
CNC(C)Cc1ccc2c(c1)OCO2 (stereo not drawn) | 0.9 | 0.95
O=[N+]([O-])c1cc([As](=O)(O)O)ccc1O | 1.05 | 0.94
CNC(C)Cc1ccccc1 (stereo not drawn) | 0.89 | 0.87
C[N+](C)(C)CC(=O)[O-] | 0.84 | 0.98
CNC(C)C(=O)c1ccccc1 (stereo not drawn) | 1.01 | 0.95
CC(C)CC(NC(=O)C(Cc1ccccc1)NC(=O)CNC(=O)CNC(=O)C(N)Cc1ccc(O)cc1)C(=O)O (stereo not drawn) | 0.98 | 0.91
CC[C@@H]1/C=C/C=C/C[C@H](C)[C@@H](O)[C@](C)(O)C(=O)[C@H](C)[C@@H](O)[C@H](C)C(=O)[C@H](C)[C@@H](O)[C@H](C)/C=C/C(=O)O[C@H]2[C@@H](C)[C@@H](CC1)O[C@@]1(CC[C@@H](C)[C@@H](C[C@H](C)O)O1)[C@@H]2C | 0.37 | 0.28
CN(C)[C@@H]1C(=O)C(C(N)=O)=C(O)[C@@]2(O)C(=O)C3=C(O)c4c(O)cccc4[C@@](C)(O)[C@H]3C[C@@H]12 | 0.82 | 0.94
C[CH2][Hg][S]c1ccccc1C(=O)O | 0.16 | 0.1
COc1ccc(C[C@H]2NC[C@H](O)[C@H]2OC(C)=O)cc1 | 0.09 | 0.06
CN=C1CN(O)C(c2ccccc2)=c2cc(Cl)ccc2=N1 | 0.91 | 0.81
CC(N)Cc1ccc2c(c1)OCO2 (stereo not drawn) | 0.87 | 0.97
C[C@]12CCC(=O)C=C1CCC1C2CC[C@@]2(C)C1CC[C@@H]2O (stereo partly drawn) | 0.99 | 0.85
NC(=O)CN1CCCC1=O | 0.86 | 0.95
Clc1ccc(COC(Cn2ccnc2)c2ccc(Cl)cc2Cl)c(Cl)c1 (stereo not drawn) | 0.86 | 0.83
C[C@@H]([C@H](O)c1ccccc1)N(C)C | 0.87 | 0.92
C=CCC1(C(C)CCC)C(=O)N=C(S)NC1=O (stereo not drawn) | 1.01 | 0.86
CN(C)[C@@H]1C(=O)C(C(N)=O)=C(O)[C@@]2(O)C(=O)C3=C(O)c4c(O)ccc(Cl)c4[C@@](C)(O)[C@H]3C[C@@H]12 | 0.96 | 0.88
